Source: publication PMC6928942
Results are given in words; binding and its absence hold for the method and conditions named. In cells and extracts the contact can be indirect. Binding calls can cover weak binding; strength is not graded here.

Protein sequences, listed by entry. Tags and fused reporters are not part of them.
UniProt Q12522: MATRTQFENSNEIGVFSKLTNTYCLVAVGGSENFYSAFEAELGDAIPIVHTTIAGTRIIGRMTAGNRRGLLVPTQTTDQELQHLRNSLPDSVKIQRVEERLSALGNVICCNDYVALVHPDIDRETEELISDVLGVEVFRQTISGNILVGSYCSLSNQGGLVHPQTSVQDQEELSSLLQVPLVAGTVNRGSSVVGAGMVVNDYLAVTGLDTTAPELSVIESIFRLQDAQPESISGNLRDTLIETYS
UniProt P0CX25: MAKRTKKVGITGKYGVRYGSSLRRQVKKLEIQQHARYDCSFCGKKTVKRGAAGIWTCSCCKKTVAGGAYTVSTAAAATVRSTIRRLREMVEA

Key:
[1] = target: puf6ΔDE-myc (S. cerevisiae) (UniProt Q04373); assay: co-IP; anti-c-myc antibody (9E10) and protein-A agarose beads on yeast extract, 4 °C, IP buffer (20 mM Tris pH 7.5, 50 mM NaCl, 6 mM MgCl2, 10% glycerol); Western blotting
Tif6-TAP (S. cerevisiae) = Tif6-TAP (S. cerevisiae) (UniProt Q12522); assay: co-IP; Tif6-TAP immunoprecipitated from yeast; Puf6 mutants examined

Rpl43B-HA (from UniProt P0CX25 1-92)
binding [1]: binds

puf6ΔDE-myc (from UniProt Q04373)
binding (Tif6-TAP (S. cerevisiae)): binds
